# The other results are listed elsewhere or left out. The main result of the screen is listed elsewhere. These columns were measured beside it and carry no call. Compounds called inactive in the main read-out are mostly missing here. Potencies come from curve fits of mixed quality, noted in brackets.
# Assay: IkB Signaling
# Details: ABC-DLBCL IkBa-CBG/CBR dual luciferase ratio (green luciferase fused to IkBa over red control in OCI-Ly3 lymphoma cells), 4 h; measured here: control luc red channel unless noted
# Outline: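 In this assay, an IκBα–CBG68 fusion accumulates when IKK-driven degradation is blocked; native CBR normalizes for cell number. OCI-Ly3 cells were treated 4 h with compound and doxycycline, then green and red light read after Chroma-Glo addition.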
row,Compound,AC50
1,CC(=O)c1ccc(N2CCN(C3C(=O)c4ccccc4N3C(C)=O)CC2)cc1 (configuration not stated),"31.6 µM [falling, single point]"
2,O=C1CC(Sc2nnc(-c3ccccc3)o2)C(=O)N1c1ccccc1 (configuration not stated),"39.8 µM [falling, single point]"
3,COc1ccc(Cl)cc1NC(=O)c1nn(C)c2c1CS(=O)(=O)c1ccccc1-2,"15.8 µM [falling, single point]"
4,COc1ccc(-n2cc(C(=O)NCc3cccc(OC)c3)c3ccccc3c2=O)cc1,"2 µM [falling, partial curve]"
5,CC(C)Oc1ccc(CNC(=O)CCCn2c(=O)c3cccn3c3cccnc32)cc1,"31.6 µM [falling, single point]"
6,O=C(NCc1ccc2c(c1)CCN2C(=O)c1ccncc1)c1ccc(Cl)cc1,"39.8 µM [falling, single point]"
7,Clc1ccc(OCc2nn3c(-c4ccco4)nnc3s2)cc1,"20 µM [falling, partial curve]"
8,Cc1c(Cl)cccc1NC(=O)CN1C(=O)CCn2nc(-c3cccn3C)cc21,"15.8 µM [falling, partial curve]"
9,CCn1c(NCc2cccc(Cl)c2)nc2ccccc21,"31.6 µM [falling, single point]"
10,COc1cc(-c2nc3ccc(C)cn3c2Nc2ccc(Cl)cc2)ccc1O,"5.01 µM [falling, full curve]"
11,O=C(CSc1nc(-c2ccccc2)cn1-c1ccccc1)Nc1ccccc1,"39.8 µM [falling, single point]"
12,O=C(NCCCN1CCCCC1)c1cc(Sc2ccc(Cl)cc2)nc2ccccc12,"31.6 µM [falling, single point]"
13,Cc1ccc(-n2c3c(cc(C(=O)NCc4ccco4)c2=O)C(=O)CC(C)(C)C3)cc1,"20 µM [falling, partial curve]"
14,Cc1ccc(-c2nn(-c3ccccc3)cc2C2SCC(=O)N2Cc2ccccc2)o1 (configuration not stated),"7.94 µM [falling, partial curve]"
15,O=C(Cn1c(=O)n(Cc2ccc3c(c2)OCO3)c(=O)c2ccc(C(=O)NC3CCCCC3)cc21)Nc1ccccc1F,"31.6 µM [falling, partial curve]"
16,Cc1cccn2c(=O)c3cc(C(=O)NCc4ccccc4Cl)sc3nc12,"1.58 µM [rising, full curve]"

row,Compound,AC50
1,CCOC(=O)c1cc(-c2ccccc2)n(CCCC(=O)Nc2ccc(C)cc2C)c1C,"0.631 µM [rising, single point]"
2,COc1cccc(NC2SC(=O)N(c3ccccc3)C2=O)c1 (configuration not stated),"0.0126 µM [falling, full curve, poor fit]"
3,Cc1cccc(-n2c3nc(=O)n(C)c(=O)c-3cc3ccc(Cl)cc32)c1C,"5.01 µM [falling, partial curve]"
4,Cc1noc2ncnc(NCc3cccc(Cl)c3)c12,"15.8 µM [falling, single point]"
5,Oc1cccc(Nc2ncnc3sc4c(c23)CCCC4)c1,"31.6 µM [falling, partial curve]"
6,CCOc1ccc(-n2c(SCC(=O)N3CCCCC3)nc3c([nH]c4ccccc43)c2=O)cc1,"0.2 µM [falling, single point]"
7,COc1cc(S(=O)(=O)N2CCCCC2)ccc1NC=O,"3.16 µM [rising, partial curve]"
8,CC(C)(C)C(=O)N1CCN(c2nc3c(F)cccc3s2)CC1,"2.51 µM [rising, partial curve]"
9,O=C(CSc1nc(=O)n(Cc2ccco2)c2c1CCC2)NCc1ccc(F)cc1,"15.8 µM [falling, partial curve]"
10,CCc1ccc(NC(=O)CSc2nc(=O)n(Cc3ccco3)c3c2CCC3)cc1,"25.1 µM [falling, single point]"
11,COc1ccc(S(=O)(=O)N2CCCN(CCC(=O)Nc3cccc(C(F)(F)F)c3)CC2)cc1,"20 µM [falling, partial curve]"
12,O=C(NC1CC(=O)N(c2ccc(Cl)cc2)C1)c1cccs1 (configuration not stated),"5.01 µM [rising, partial curve]"
13,COc1cccc(-c2nc(-c3ccc(NC(=O)Cc4ccccc4OC)cc3)no2)c1,"5.01 µM [falling, partial curve]"
14,CC(C)CC(=O)Nc1ccc(-c2cn3ccsc3n2)cc1,"10 µM [falling, partial curve]"
15,COc1ccc2nc(N3CCN(C(=O)c4ccco4)CC3)sc2c1,"2.51 µM [rising, partial curve]"
16,COc1ccc(OC)c(CNC(=O)C2COc3ccccc3C2)c1 (configuration not stated),"10 µM [rising, partial curve]"

# Random excerpt: two entries already listed, in no set order.
row,Compound,AC50
14,Cc1ccc(-c2nn(-c3ccccc3)cc2C2SCC(=O)N2Cc2ccccc2)o1 (configuration not stated),"7.94 µM [falling, partial curve]"
4,Cc1noc2ncnc(NCc3cccc(Cl)c3)c12,"15.8 µM [falling, single point]"

# Reference: PubChem BioAssay AID445 (National Center for Advancing Translational Sciences (NCATS), 2006)
